Where two headings read alike, the source gives them in different places. No constants are given. Whether binding was seen depends on the method and setting. Binding calls can cover weak binding; strength is not graded here. For some assays here: Tags and fused reporters may be left off the sequences shown.

Chains of the proteins cited; added tags and fusions are not shown. Lines headed by an entry give the natural chain unless they say otherwise; changes in a name come on top.
UniProt Q06148: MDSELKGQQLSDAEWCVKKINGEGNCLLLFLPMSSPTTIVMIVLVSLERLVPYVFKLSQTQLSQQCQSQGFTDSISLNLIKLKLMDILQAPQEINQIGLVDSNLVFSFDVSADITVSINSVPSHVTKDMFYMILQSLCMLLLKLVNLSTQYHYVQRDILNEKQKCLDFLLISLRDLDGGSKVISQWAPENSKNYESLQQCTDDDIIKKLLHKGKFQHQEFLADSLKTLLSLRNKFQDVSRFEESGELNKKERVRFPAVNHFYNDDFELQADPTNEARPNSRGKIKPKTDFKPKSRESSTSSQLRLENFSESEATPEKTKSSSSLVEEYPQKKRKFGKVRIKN
UniProt P32829: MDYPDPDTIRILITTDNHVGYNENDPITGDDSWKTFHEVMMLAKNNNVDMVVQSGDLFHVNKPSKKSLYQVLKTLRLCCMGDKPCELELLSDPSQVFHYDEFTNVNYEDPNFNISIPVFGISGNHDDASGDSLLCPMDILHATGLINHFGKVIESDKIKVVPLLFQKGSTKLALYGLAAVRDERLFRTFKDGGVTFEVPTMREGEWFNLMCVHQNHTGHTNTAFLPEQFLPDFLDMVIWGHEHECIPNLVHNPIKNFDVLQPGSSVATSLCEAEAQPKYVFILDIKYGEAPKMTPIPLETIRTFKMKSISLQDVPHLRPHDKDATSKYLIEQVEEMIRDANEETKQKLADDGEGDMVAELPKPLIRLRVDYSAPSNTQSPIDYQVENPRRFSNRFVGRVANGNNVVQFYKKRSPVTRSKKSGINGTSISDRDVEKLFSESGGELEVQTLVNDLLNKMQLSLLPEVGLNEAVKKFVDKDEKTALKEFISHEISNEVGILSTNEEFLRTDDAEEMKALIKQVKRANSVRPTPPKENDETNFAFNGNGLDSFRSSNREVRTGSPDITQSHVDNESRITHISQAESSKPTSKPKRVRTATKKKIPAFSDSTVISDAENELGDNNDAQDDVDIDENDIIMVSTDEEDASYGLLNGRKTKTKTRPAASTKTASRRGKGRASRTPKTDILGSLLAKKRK

Test in all cases: pull-down; GST-tagged Nej1 (wild type or mutant) immobilized on glutathione-sepharose; ~300-600 ng His-tagged protein pre-cleared and incubated in 25 mM HEPES pH 7.5, 100 mM NaCl, 10% glycerol, 100 ug/ml BSA, 0.5 mM DTT, 0.1% Tween 20, 4°C, 3 hours; western blot with anti-His and anti-GST; both purified
For orientation: Immunoblotting shows a protein as a band on a membrane.

Experiment [1] addresses recombinant GST-Nej1 (wild type) (budding yeast) (UniProt Q06148).
Experiment [2] addresses recombinant GST-Nej1-3KR (non-acetylatable mutant) (budding yeast) (UniProt Q06148).
Experiment [3] concerns the target recombinant GST-Nej1 (wild type) (budding yeast) (UniProt Q06148). The source holds these as a separate data set.
The target in experiment [4] is recombinant GST-Nej1-3KQ (acetyl-mimicking mutant) (budding yeast) (UniProt Q06148).
In experiment [5] the target is recombinant GST-Nej1-3KR (non-acetylatable mutant) (budding yeast) (UniProt Q06148). The source holds these as a separate data set.

In the case of “C-terminal region of recombinant Mre11 (from UniProt P32829) (domain or fragment)”, the binding result in experiment [1] and in experiment [2] was “binds” throughout.

B1: recombinant Yku80, 6XHis tagged (protein, UniProt Q04437 1-629)
chain: MSSESTTFIVDVSPSMMKNNNVSKSMAYLEYTLLNKSKKSRKTDWISCYLANCPVSENSQEIPNVFQIQSFLAPVTTTATIGFIKRLKQYCDQHSHDSSNEGLQSMIQCLLVVSLDIKQQFQARKILKQIVVFTDNLDDLDITDEEIDLLTEELSTRIILIDCGKDTQEERKKSNWLKLVEAIPNSRIYNMNELLVEITSPATSVVKPVRVFSGELRLGADILSTQTSNPSGSMQDENCLCIKVEAFPATKAVSGLNRKTAVEVEDSQKKERYVGVKSIIEYEIHNEGNKKNVSEDDQSGSSYIPVTISKDSVTKAYRYGADYVVLPSVLVDQTVYESFPGLDLRGFLNREALPRYFLTSESSFITADTRLGCQSDLMAFSALVDVMLENRKIAVARYVSKKDSEVNMCALCPVLIEHSNINSEKKFVKSLTLCRLPFAEDERVTDFPKLLDRTTTSGVPLKKETDGHQIDELMEQFVDSMDTDELPEIPLGNYYQPIGEVTTDTTLPLPSLNKDQEENKKDPLRIPTVFVYRQQQVLLEWIHQLMINDSREFEIPELPDSLKNKISPYTHKKFDSTKLVEVLGIKKVDKLKLDSELKTELEREKIPDLETLLKRGEQHSRGSPNNSNN
Regarding B1, the binding result in experiment [3], in experiment [4] and in experiment [5] was “binds” throughout.

For the origin of these results see PMC8483352.
